Reference: paper PMC6237358
No constants are given. Whether binding was seen depends on the method and setting. In cells and extracts the contact can be indirect. Where a sequence is shown, tags or fusion partners need not be part of it.

Amino acid sequences for entries named in this document (tags omitted).
UniProt Q92878: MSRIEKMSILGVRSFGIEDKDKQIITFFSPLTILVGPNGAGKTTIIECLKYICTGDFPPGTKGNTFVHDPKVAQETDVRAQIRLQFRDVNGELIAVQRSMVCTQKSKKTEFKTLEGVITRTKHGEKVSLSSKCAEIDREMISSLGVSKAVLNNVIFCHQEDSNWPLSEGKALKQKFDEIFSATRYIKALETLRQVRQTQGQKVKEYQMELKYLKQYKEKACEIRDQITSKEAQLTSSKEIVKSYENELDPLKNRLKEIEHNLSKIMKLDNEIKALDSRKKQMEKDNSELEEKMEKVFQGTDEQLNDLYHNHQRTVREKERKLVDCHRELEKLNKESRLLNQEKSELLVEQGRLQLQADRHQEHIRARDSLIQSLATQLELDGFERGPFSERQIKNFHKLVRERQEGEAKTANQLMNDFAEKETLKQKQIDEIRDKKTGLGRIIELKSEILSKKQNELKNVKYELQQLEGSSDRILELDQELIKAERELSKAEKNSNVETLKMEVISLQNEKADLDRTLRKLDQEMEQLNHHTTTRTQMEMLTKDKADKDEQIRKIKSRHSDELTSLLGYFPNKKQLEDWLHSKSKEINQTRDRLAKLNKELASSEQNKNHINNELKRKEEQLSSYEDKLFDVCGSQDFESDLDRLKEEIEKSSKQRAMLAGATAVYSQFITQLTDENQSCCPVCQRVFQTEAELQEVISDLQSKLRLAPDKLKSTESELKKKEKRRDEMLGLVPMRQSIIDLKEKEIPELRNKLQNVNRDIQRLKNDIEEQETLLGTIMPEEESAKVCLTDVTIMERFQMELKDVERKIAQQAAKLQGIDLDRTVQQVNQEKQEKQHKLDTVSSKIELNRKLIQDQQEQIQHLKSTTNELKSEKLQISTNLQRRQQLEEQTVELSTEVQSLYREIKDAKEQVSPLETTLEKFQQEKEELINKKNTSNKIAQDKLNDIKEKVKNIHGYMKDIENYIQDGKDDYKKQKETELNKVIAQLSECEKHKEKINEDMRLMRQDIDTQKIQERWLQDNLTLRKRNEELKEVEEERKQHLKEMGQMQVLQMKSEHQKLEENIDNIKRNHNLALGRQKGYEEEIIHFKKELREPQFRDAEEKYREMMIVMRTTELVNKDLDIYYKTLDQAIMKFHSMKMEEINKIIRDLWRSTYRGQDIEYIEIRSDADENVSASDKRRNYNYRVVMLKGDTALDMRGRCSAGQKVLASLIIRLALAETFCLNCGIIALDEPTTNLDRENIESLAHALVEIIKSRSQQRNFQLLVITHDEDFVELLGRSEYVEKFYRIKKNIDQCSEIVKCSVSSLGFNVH

Target: T1, Flag-tagged Xrs2 (codon optimised synthetic XRS2) (S. cerevisiae) (UniProt P33301)
T1 sequence: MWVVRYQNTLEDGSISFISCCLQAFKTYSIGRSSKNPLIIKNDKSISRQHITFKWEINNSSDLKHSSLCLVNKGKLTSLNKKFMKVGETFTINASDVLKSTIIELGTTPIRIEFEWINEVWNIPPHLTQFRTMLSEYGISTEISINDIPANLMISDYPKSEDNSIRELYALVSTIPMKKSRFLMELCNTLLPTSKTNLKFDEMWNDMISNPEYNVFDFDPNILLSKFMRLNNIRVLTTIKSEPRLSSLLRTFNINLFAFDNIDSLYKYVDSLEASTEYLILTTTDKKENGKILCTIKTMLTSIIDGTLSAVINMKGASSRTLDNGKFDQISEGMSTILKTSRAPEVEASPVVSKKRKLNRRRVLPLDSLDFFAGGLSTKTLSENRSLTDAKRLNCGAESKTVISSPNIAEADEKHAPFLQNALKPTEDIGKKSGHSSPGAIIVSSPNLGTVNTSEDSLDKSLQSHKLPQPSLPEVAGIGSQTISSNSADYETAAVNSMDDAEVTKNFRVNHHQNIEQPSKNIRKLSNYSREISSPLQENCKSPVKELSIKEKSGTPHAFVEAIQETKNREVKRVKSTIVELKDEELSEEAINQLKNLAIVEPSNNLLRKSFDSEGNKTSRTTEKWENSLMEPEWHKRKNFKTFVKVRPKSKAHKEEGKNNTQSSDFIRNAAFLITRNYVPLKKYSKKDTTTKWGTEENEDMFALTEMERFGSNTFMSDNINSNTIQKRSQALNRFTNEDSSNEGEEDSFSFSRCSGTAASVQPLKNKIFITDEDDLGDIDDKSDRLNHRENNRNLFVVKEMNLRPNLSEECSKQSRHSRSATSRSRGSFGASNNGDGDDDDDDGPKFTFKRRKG
Assay: co-IP; lysates of transfected HEK293 cells (50 mM Tris-HCl pH 7.5, 150 mM NaCl, 5 mM EDTA, 0.3% Triton X-100) precipitated with Flag antibody and Dynabeads Protein G for 3 h, washed four times; immunoblot for MRE11 and RAD50

binding: no binding
Substance: RAD50 (from UniProt Q92878 1-1312)
